In publication doi:10.1101/2023.03.13.532151:
No constants are given. Whether binding was seen depends on the method and setting. Binding seen in cells or lysates may run through a third protein. A yes stands for co-enrichment or nearness to the bait. Other partners may have been found. Blank lines part the entries; values can stand above or below the molecule they belong to.

By UniProt entry, the sequences of proteins in these tests, tags left out. Residues count along the entry.
UniProt P01589, residues 22-272: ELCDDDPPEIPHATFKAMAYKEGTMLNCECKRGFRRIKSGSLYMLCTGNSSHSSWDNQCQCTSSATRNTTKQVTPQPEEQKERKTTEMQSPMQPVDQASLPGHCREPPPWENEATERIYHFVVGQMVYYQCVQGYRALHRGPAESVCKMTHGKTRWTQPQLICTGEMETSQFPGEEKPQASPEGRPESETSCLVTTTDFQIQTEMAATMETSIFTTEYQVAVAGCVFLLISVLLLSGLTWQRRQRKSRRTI
UniProt P29350: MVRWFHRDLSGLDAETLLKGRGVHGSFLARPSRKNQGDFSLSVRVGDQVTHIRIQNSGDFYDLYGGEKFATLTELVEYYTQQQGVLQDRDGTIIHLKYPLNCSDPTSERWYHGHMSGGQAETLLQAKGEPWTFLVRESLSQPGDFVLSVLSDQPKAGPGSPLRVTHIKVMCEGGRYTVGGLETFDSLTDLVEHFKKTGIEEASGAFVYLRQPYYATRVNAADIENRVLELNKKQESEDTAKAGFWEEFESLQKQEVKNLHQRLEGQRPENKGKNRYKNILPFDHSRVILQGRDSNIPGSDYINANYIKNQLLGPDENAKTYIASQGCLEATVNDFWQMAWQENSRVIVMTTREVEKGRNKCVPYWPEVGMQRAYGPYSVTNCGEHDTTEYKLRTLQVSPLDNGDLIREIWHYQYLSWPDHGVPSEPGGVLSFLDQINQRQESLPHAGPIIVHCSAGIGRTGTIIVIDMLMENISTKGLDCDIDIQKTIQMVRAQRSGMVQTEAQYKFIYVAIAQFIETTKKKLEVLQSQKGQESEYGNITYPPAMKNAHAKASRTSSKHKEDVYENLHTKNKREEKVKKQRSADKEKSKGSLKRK

Molecular target: CD25^WT-BirA (UniProt P01589)
Test: proximity labelling

binding: binds
Molecule: SHP1 (human) (from UniProt P29350 1-595) (enzyme)

binding: binds
B1: SHIP1 (human) (enzyme, UniProt Q92835 1-1189)
chain: MVPCWNHGNITRSKAEELLSRTGKDGSFLVRASESISRAYALCVLYRNCVYTYRILPNEDDKFTVQASEGVSMRFFTKLDQLIEFYKKENMGLVTHLQYPVPLEEEDTGDDPEEDTVESVVSPPELPPRNIPLTASSCEAKEVPFSNENPRATETSRPSLSETLFQRLQSMDTSGLPEEHLKAIQDYLSTQLAQDSEFVKTGSSSLPHLKKLTTLLCKELYGEVIRTLPSLESLQRLFDQQLSPGLRPRPQVPGEANPINMVSKLSQLTSLLSSIEDKVKALLHEGPESPHRPSLIPPVTFEVKAESLGIPQKMQLKVDVESGKLIIKKSKDGSEDKFYSHKKILQLIKSQKFLNKLVILVETEKEKILRKEYVFADSKKREGFCQLLQQMKNKHSEQPEPDMITIFIGTWNMGNAPPPKKITSWFLSKGQGKTRDDSADYIPHDIYVIGTQEDPLSEKEWLEILKHSLQEITSVTFKTVAIHTLWNIRIVVLAKPEHENRISHICTDNVKTGIANTLGNKGAVGVSFMFNGTSLGFVNSHLTSGSEKKLRRNQNYMNILRFLALGDKKLSPFNITHRFTHLFWFGDLNYRVDLPTWEAETIIQKIKQQQYADLLSHDQLLTERREQKVFLHFEEEEITFAPTYRFERLTRDKYAYTKQKATGMKYNLPSWCDRVLWKSYPLVHVVCQSYGSTSDIMTSDHSPVFATFEAGVTSQFVSKNGPGTVDSQGQIEFLRCYATLKTKSQTKFYLEFHSSCLESFVKSQEGENEEGSEGELVVKFGETLPKLKPIISDPEYLLDQHILISIKSSDSDESYGEGCIALRLEATETQLPIYTPLTHHGELTGHFQGEIKLQTSQGKTREKLYDFVKTERDESSGPKTLKSLTSHDPMKQWEVTSRAPPCSGSSITEIINPNYMGVGPFGPPMPLHVKQTLSPDQQPTAWSYDQPPKDSPLGPCRGESPPTPPGQPPISPKKFLPSTANRGLPPRTQESRPSDLGKNAGDTLPQEDLPLTKPEMFENPLYGSLSSFPKPAPRKDQESPKMPRKEPPPCPEPGILSPSIVLTKAQEADRGEGPGKQVPAPRLRSFTCSSSAEGRAAGGDKSQGKPKTPVSSQAPVPAKRPIKPSRSEINQQTPPTPTPRPPLPVKSPAVLHLQHSKGRDYRDNTELPHHGKHRPEEGPPGPLGRTAMQ
